Experimental data reported in patent publication US20150173847A1, “IMAGING MARKER AND UTILIZATION THEREOF” (priority 2012, published 2015).
Where two headings read alike, the source gives them in different places.

Tests used:
[1] = CT imaging (Inveon animal CT) of representative metal compound aqueous solutions; CT-CNR
[2] = MRI imaging (MPRAGE, 3-tesla) of metal compound aqueous solutions in tubes; MRI-CNR with reference to water
[3] = PET transmission imaging (microPET, 68Ga/Ge point source) of metal compound aqueous solutions; PET-CNR with reference to water; conditions: PET transmission image, aqueous solution at the concentration of maximum MRI contrast
[4] = aqueous solution that exhibited maximum MRI contrast
[5] = representative aqueous solutions of Table 1
[6] = concentration at which the aqueous solution exhibited maximum MRI contrast
[7] = maximum contrast ratio of the aqueous solution at multiple levels of concentration, MPRAGE, 3-tesla, 22° C., reference to water

## O=S(=O)([O-])[O-].[Cu+2] [Cu (CuSO4), Copper sulfate]
[1]
  CT CNR (×10^2): −0.5 ×10^2
  CT values compared with water: about the same CT values as that generated by water
[2]
  MRI CNRmax: 90
  Metal concentration: 10 mM

## CNC[C@H](O)[C@@H](O)[C@H](O)[C@H](O)CO.CNC[C@H](O)[C@@H](O)[C@H](O)[C@H](O)CO.O=C([O-])CN(CCN(CC(=O)[O-])CC(=O)O)CCN(CC(=O)[O-])CC(=O)O.[Gd+3] [Gd (Gd-DTPA), meglumine gadopentetate]
[1]; [4]
  CT CNR (×10^2): −0.6 ×10^2
[1]; [5]
  CT values compared with water: about the same CT values as that generated by water
[3]
  PET CNR: −0.66
[2]; [6]
  Metal concentration: 1.0 mM
[2]; [7]
  MRI CNRmax: 49

## O.[Na+].[Na+].[Na+].[Na+].[Na+].[Na+].[O]=[W](=[O])([O-])[O-].[O]=[W](=[O])([O-])[O-].[O]=[W](=[O])([O-])[O-].[O]=[W](=[O])=[O].[O]=[W](=[O])=[O].[O]=[W](=[O])=[O].[O]=[W](=[O])=[O].[O]=[W](=[O])=[O].[O]=[W](=[O])=[O].[O]=[W](=[O])=[O].[O]=[W](=[O])=[O].[O]=[W](=[O])=[O] [W (SPT), Sodium polytungstate]
[1]; [4]
  CT CNR (×10^2): 17 ×10^2
[1]; [5]
  CT image contrast ratios: 17×10^2
[3]
  PET CNR: 40.3
[3]; listed as SPT
  PET CNR: 21
[2]; [6]
  Metal concentration: 10000 mM
[2]; [7]
  MRI CNRmax: 31
